# Assay results from the supplement of paper PMC12819154, “High-throughput peptide-centric local stability assay extends protein–ligand identification to membrane proteins, tissues and bacteria” (Nature Structural & Molecular Biology, 2025).
# Chains of the proteins cited; added tags and fusions are not shown. Lines headed by an entry give the natural chain unless they say otherwise; changes in a name come on top.
# UniProt Q9D3G5: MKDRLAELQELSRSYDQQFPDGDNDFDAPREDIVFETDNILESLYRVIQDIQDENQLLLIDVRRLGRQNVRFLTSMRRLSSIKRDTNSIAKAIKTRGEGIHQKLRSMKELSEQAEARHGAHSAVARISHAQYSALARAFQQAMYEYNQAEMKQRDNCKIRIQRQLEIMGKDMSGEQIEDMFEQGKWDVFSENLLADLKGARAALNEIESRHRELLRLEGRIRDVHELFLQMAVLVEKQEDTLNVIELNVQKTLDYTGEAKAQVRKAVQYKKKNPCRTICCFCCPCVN
# UniProt Q9D6T0: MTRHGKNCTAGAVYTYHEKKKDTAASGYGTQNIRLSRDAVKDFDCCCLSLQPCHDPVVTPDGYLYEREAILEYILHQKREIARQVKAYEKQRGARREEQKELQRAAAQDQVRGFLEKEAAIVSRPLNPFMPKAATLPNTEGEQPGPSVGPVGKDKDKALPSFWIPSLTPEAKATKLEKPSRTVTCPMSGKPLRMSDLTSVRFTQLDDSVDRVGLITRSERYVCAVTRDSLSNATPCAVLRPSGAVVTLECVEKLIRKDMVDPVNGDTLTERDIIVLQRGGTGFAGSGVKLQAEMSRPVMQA
# UniProt Q9D385: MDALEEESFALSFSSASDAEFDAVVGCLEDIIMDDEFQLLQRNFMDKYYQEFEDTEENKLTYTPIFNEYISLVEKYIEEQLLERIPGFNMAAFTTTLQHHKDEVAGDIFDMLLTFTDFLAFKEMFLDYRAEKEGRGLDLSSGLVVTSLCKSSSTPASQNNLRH
# UniProt Q9D880: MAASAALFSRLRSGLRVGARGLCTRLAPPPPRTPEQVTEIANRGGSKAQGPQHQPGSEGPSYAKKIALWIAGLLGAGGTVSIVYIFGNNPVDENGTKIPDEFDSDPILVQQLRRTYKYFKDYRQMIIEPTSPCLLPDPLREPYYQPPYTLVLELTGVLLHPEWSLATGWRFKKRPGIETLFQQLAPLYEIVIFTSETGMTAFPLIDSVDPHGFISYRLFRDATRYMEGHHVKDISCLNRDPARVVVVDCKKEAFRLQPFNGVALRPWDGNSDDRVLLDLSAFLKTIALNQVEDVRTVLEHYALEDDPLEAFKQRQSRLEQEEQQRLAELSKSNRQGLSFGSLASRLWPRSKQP
# UniProt Q9D952: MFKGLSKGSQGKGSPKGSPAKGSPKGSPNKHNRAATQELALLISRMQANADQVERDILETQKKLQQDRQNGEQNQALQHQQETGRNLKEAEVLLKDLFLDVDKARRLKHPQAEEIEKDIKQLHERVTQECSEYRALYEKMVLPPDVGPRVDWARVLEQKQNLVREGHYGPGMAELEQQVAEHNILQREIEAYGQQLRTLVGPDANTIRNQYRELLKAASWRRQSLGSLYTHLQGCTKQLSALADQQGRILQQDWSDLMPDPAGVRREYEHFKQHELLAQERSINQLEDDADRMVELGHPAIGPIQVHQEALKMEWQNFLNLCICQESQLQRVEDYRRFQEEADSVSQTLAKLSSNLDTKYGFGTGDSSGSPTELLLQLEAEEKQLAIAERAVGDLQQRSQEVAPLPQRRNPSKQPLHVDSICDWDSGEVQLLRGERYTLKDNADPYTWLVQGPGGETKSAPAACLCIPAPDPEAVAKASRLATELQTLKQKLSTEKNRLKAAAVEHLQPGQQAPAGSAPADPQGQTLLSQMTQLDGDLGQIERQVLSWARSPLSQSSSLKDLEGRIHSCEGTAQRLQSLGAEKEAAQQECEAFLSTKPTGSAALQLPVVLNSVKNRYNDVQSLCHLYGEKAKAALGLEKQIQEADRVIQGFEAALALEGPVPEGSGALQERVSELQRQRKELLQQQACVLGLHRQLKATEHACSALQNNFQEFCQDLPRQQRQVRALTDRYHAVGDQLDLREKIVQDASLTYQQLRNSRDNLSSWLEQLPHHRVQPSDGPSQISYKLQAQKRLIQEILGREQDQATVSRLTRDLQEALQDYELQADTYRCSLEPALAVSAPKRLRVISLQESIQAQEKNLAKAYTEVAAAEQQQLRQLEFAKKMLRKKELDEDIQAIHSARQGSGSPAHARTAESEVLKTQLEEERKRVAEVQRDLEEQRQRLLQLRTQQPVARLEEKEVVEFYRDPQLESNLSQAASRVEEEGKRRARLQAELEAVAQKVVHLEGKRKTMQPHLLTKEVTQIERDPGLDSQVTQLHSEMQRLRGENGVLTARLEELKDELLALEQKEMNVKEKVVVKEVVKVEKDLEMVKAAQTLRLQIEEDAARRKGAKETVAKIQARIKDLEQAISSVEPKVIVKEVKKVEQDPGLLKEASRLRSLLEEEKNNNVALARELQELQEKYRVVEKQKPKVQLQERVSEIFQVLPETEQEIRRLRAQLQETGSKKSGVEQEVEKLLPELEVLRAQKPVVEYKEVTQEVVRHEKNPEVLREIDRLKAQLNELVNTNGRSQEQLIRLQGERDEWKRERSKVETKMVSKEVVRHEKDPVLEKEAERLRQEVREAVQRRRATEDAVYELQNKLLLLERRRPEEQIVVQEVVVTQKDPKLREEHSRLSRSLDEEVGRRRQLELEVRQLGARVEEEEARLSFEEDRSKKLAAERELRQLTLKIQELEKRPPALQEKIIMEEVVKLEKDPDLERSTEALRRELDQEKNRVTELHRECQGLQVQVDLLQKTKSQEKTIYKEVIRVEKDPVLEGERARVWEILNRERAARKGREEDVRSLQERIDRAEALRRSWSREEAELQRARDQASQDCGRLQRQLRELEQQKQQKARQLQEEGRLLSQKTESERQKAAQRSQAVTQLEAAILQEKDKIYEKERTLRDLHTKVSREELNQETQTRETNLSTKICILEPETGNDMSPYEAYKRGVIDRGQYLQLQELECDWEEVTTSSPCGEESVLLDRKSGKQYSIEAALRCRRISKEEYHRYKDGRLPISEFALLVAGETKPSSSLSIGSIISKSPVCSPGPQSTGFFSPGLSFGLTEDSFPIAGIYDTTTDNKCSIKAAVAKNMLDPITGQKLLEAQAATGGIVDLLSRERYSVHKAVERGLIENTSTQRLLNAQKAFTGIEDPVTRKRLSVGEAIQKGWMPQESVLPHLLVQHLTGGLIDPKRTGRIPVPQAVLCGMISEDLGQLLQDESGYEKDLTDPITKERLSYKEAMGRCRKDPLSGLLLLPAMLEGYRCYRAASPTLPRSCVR
# UniProt Q9D2N9: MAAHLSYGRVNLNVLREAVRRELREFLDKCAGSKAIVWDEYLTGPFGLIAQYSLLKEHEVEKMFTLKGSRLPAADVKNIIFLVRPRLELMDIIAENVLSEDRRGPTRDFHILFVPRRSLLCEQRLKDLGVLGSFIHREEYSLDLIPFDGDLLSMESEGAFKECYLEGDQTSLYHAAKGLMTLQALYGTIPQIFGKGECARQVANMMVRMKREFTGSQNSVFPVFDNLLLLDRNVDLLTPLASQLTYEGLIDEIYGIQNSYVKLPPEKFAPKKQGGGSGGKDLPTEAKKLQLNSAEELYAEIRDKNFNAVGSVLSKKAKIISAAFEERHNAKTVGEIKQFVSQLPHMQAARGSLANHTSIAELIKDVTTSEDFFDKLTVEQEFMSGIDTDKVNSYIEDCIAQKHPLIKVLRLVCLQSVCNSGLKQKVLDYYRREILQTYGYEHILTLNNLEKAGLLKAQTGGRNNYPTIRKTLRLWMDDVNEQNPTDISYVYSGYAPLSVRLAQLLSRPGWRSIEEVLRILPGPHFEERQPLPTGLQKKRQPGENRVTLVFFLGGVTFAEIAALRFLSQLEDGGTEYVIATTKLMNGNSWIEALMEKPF
# UniProt Q9D786: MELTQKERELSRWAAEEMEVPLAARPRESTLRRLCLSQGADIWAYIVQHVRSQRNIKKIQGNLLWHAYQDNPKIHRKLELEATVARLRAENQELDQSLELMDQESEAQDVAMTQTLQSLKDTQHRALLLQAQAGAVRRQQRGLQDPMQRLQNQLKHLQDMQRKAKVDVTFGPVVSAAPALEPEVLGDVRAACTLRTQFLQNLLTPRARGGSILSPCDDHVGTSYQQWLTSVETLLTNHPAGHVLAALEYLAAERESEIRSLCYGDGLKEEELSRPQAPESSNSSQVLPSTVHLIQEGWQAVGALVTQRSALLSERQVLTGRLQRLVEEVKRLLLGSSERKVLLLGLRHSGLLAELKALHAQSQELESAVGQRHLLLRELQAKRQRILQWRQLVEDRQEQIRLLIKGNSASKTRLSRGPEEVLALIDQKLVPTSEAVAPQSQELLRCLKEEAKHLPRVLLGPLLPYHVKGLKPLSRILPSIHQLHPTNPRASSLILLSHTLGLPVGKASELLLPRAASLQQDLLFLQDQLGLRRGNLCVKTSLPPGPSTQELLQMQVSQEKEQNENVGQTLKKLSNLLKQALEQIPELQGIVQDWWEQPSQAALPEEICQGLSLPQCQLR
# UniProt Q9D174: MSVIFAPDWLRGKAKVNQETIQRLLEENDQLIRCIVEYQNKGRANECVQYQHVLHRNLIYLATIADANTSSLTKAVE
# UniProt Q9D1N9, whole entry: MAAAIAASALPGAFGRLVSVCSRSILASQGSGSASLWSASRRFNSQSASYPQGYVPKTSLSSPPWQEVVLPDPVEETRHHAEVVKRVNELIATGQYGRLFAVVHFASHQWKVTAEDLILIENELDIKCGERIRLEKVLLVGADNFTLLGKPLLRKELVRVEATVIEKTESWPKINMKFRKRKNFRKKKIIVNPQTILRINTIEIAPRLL
# UniProt Q9D1F5: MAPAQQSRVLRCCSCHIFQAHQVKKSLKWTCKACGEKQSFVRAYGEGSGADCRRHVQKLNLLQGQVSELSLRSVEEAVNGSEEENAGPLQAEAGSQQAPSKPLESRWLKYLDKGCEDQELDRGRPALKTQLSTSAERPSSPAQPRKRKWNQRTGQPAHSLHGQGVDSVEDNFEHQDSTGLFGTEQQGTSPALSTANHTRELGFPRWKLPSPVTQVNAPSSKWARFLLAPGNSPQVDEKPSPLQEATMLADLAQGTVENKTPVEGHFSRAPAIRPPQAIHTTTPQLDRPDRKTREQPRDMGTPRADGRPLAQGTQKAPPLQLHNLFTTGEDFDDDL
# UniProt Q9DAK9: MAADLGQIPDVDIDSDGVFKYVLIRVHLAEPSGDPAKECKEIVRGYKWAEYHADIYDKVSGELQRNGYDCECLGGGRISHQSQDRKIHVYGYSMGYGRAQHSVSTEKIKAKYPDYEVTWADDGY
# UniProt Q9D4D4: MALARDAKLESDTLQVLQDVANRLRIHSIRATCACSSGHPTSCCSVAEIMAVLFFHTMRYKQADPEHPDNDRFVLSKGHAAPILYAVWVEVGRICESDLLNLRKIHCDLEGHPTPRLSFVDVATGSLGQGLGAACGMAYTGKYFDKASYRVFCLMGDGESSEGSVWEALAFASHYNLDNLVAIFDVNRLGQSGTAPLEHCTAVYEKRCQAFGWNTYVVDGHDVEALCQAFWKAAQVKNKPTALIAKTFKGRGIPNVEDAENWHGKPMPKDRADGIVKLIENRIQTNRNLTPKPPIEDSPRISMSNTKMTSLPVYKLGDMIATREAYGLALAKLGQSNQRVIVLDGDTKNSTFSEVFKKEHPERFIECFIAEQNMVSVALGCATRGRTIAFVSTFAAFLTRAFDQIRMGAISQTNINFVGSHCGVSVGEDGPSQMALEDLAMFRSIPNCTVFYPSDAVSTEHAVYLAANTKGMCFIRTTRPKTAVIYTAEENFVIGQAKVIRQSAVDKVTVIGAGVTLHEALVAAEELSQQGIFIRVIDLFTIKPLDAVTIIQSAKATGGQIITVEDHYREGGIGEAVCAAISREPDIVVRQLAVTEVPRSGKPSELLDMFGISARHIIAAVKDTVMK
# UniProt Q9D620: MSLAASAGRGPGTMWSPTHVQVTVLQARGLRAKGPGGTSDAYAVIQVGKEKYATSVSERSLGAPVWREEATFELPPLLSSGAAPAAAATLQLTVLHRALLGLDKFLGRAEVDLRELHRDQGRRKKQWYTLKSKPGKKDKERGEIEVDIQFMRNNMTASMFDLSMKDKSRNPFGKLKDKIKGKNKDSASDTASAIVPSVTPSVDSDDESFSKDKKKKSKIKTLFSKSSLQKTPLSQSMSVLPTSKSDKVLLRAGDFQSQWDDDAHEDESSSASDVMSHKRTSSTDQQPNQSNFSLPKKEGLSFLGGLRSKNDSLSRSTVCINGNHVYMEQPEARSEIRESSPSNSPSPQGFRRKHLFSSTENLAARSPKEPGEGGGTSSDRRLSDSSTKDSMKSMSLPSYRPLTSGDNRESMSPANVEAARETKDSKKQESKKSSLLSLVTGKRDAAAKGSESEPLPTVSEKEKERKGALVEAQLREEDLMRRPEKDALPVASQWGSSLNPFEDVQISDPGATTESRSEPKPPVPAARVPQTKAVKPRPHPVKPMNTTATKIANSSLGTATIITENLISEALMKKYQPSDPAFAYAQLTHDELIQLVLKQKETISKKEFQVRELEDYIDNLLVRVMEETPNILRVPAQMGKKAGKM
# UniProt Q9D6Z0: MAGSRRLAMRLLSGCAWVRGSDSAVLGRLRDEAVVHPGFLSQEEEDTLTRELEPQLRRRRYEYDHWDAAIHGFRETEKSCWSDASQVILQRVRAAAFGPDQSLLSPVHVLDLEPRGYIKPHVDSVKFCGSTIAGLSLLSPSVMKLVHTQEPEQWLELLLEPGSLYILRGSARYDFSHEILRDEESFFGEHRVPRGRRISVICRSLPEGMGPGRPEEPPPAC
# The list shows a part of the results. Most entries show no effect beyond the scatter of the controls.
# Compound: CN[C@@H]1C[C@H]2O[C@@](C)([C@@H]1OC)n1c3ccccc3c3c4c(c5c6ccccc6n2c5c31)C(=O)NC4 [staurosporine]
# Experiment: log2 fold change of tryptic peptide abundance, ligand vs vehicle (limited proteolysis) (log2 ratio); higher = more trypsin-susceptible (destabilized)
# Conditions: ligand concentration: 20 uM; sample: mouse liver crude lysate; replicate design: treated separately
row,Target,log2 fold change
1,"UniProt Q9D1G1 (peptide sequence: RMGPGAASGGERPNLK, peptide start residue: 172)",0.859
2,"UniProt Q9D3G5 (peptide sequence: ISHAQYSALAR, peptide start residue: 127)",-0.362
3,"UniProt Q9D6T0 (peptide sequence: FTQLDDSVDRVGLITR, peptide start residue: 202)",-0.749
4,"UniProt Q9D8U0 (peptide sequence: SLTLADALEK, peptide start residue: 116)",0.15
5,"UniProt Q9D483 (peptide sequence: MDQTSSEIVR, peptide start residue: 258)",-0.375
6,"UniProt Q9D385 (peptide sequence: SSSTPASQNNLR, peptide start residue: 151)",0.489
7,"UniProt Q9D880 (peptide sequence: YMEGHHVK, peptide start residue: 225)",-0.246
8,"UniProt Q9D516 (peptide sequence: LHTLDSYEDKQR, peptide start residue: 233)",-0.53
9,"UniProt Q9D855 (peptide sequence: LGLMRDDTLHETEDVKEAIR, peptide start residue: 30)",-0.403
10,"UniProt Q9D3D0 (peptide sequence: AREELQEKPEWR, peptide start residue: 44)",-0.0533
11,"UniProt Q9D903 (peptide sequence: VQTEVLQKR, peptide start residue: 180)",-0.526
12,"UniProt Q9D952 (peptide sequence: LEELKDELLALEQK, peptide start residue: 1054)",0.596
13,"UniProt Q9D882 (peptide sequence: GHGAPPGGPGPR, peptide start residue: 37)",-0.0691
14,"UniProt Q9D2N9 (peptide sequence: KQGGGSGGKDLPTEAK, peptide start residue: 272)",-0.405
15,"UniProt Q9DA97 (peptide sequence: DAEKELQDK, peptide start residue: 367)",0.213
16,"UniProt Q9D786 (peptide sequence: ASELLLPR, peptide start residue: 507)",0.115
17,"UniProt Q9D2V5 (peptide sequence: DRVGQNLPLCGTECR, peptide start residue: 172)",-0.185
18,"UniProt Q9D8L5 (peptide sequence: HKQELEDMRK, peptide start residue: 196)",0.546

# Two entries picked at random from the list so far:
row,Target,log2 fold change
18,"UniProt Q9D8L5 (peptide sequence: HKQELEDMRK, peptide start residue: 196)",0.546
9,"UniProt Q9D855 (peptide sequence: LGLMRDDTLHETEDVKEAIR, peptide start residue: 30)",-0.403

# Remaining list, next part:

row,Target,log2 fold change
1,"UniProt Q9D8Z2 (peptide sequence: FLKGDGSGDPCTDLFKR, peptide start residue: 27)",0.101
2,"UniProt Q9D174 (peptide sequence: ANECVQYQHVLHR, peptide start residue: 44)",-0.508
3,"UniProt Q9D1N9 (peptide sequence: VNELIATGQYGR, peptide start residue: 87)",0.231
4,"UniProt Q9D1F5 (peptide sequence: AYGEGSGADCR, peptide start residue: 43)",0.3
5,"UniProt Q9D7P6 (peptide sequence: VVDHYENPR, peptide start residue: 40)",0.0995
6,"UniProt Q9DAK9 (peptide sequence: WAEYHADIYDK, peptide start residue: 48)",-0.371
7,"UniProt Q9D7V9 (peptide sequence: VETNYDHWKPAPK, peptide start residue: 289)",-0.273
8,"UniProt Q9D968 (peptide sequence: VEVHAAATPFSK, peptide start residue: 501)",-0.235
9,"UniProt Q9D8P4 (peptide sequence: FQGQNGNYTR, peptide start residue: 97)",0.681
10,"UniProt Q9D6V8 (peptide sequence: EFVPGVKY, peptide start residue: 129)",-0.0202
11,"UniProt Q9D384 (peptide sequence: HWDPRPR, peptide start residue: 193)",-0.112
12,"UniProt Q9D892 (peptide sequence: GQTSGQIVMPR, peptide start residue: 134)",-0.348
13,"UniProt Q9D4D4 (peptide sequence: PTALIAKTFKGR, peptide start residue: 240)",0.06
14,"UniProt Q9D1L0 (peptide sequence: LCEGFNEVLR, peptide start residue: 135)",0.261
15,"UniProt Q9D706 (peptide sequence: SYDYDAWAK, peptide start residue: 88)",0.172
16,"UniProt Q9D620 (peptide sequence: GSESEPLPTVSEKEK, peptide start residue: 449)",-0.231
17,"UniProt Q9D8B6 (peptide sequence: TPEPGGSVTGTEK, peptide start residue: 67)",0.209
18,"UniProt Q9D6Z0 (peptide sequence: RYEYDHWDAAIHGFR, peptide start residue: 60)",0.487
